{"source": "the supplement of paper PMC8728848", "binders": {"B1": {"name": "Flo1 (Saccharomyces cerevisiae), P32768 (protein)", "chain": "SGATEACLPAGQRKSGMNINFYQYSLKDSSTYSNAAYMAYGYASKTKLGSVGGQTDISIDYNIPCVSSSGTFPCPQEDSYGNWGCKGMGACSNSQGIAYWSTDLFGFYTTPTNVTLEMTGYFLPPQTGSYTFKFATVDDSAILSVGGATAFNCCAQQQPPITSTNFTIDGIKPWGGSLPPNIEGTVYMYAGYYYPMKVVYSNAVSWGTLPISVTLPDGTTVSDDFEGYVYSFDDDLSQSNCTVPDPSNY"}}, "assay_in_all_cases": "glycan array binding signal (z-score within array); higher = stronger binding", "conditions_in_all_cases": "glycan notation: IUPAC condensed, linker removed", "key": {"Man(a1-6)Man": {"molecular_target": "Man(a1-6)Man", "how_it_was_run": "(§1)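 The Consortium for Functional Glycomics database supplied 3228 glycan arrays, of which those lacking an available protein sequence were dropped. The binding signal, a within-array Z-score, was averaged across arrays of the same protein sequence and across linkers. Negative scores can be read as non-binding.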"}, "Man(b1-4)GlcNAc": {"molecular_target": "Man(b1-4)GlcNAc", "how_it_was_run": "as §1"}, "MurNAc(b1-4)GlcNAc": {"molecular_target": "MurNAc(b1-4)GlcNAc", "how_it_was_run": "as §1"}, "Neu5Ac(a2-3)Gal": {"molecular_target": "Neu5Ac(a2-3)Gal", "how_it_was_run": "as §1"}, "[1]": {"molecular_target": "Neu5Ac(a2-3)Gal(b1-3)GalNAc", "how_it_was_run": "as §1"}, "[2]": {"molecular_target": "Neu5Ac(a2-3)Gal(b1-3)GalNAc(b1-3)Gal(a1-4)Gal(b1-4)Glc", "how_it_was_run": "as §1"}, "[3]": {"molecular_target": "Neu5Ac(a2-3)Gal(b1-3)GalNAc(b1-4)Gal(b1-4)Glc", "how_it_was_run": "as §1"}, "[4]": {"molecular_target": "Neu5Ac(a2-3)Gal(b1-3)GalNAc(b1-4)[Neu5Ac(a2-3)]Gal(b1-4)Glc", "how_it_was_run": "as §1"}, "[5]": {"molecular_target": "Neu5Ac(a2-3)Gal(b1-3)GalNAc(b1-4)[Neu5Ac(a2-8)Neu5Ac(a2-3)]Gal(b1-4)Glc", "how_it_was_run": "as §1"}, "[6]": {"molecular_target": "Neu5Ac(a2-3)Gal(b1-3)GalNAc6S", "how_it_was_run": "as §1"}, "[7]": {"molecular_target": "Neu5Ac(a2-3)Gal(b1-3)GlcNAc", "how_it_was_run": "as §1"}, "[8]": {"molecular_target": "Neu5Ac(a2-3)Gal(b1-3)GlcNAc(b1-2)Man", "how_it_was_run": "as §1"}, "[9]": {"molecular_target": "Neu5Ac(a2-3)Gal(b1-3)GlcNAc(b1-2)Man(a1-3)[GlcNAc(b1-4)][Neu5Ac(a2-3)Gal(b1-3)GlcNAc(b1-2)Man(a1-6)]Man(b1-4)GlcNAc(b1-4)GlcNAc", "how_it_was_run": "as §1"}, "[10]": {"molecular_target": "Neu5Ac(a2-3)Gal(b1-3)GlcNAc(b1-2)Man(a1-3)[Neu5Ac(a2-3)Gal(b1-3)GlcNAc(b1-2)Man(a1-6)]Man(b1-4)GlcNAc(b1-4)GlcNAc", "how_it_was_run": "as §1"}, "[11]": {"molecular_target": "Neu5Ac(a2-3)Gal(b1-3)GlcNAc(b1-2)[Neu5Ac(a2-3)Gal(b1-3)GlcNAc(b1-4)]Man(a1-6)[Neu5Ac(a2-3)Gal(b1-3)GlcNAc(b1-2)Man(a1-3)]Man(b1-4)GlcNAc(b1-4)GlcNAc", "how_it_was_run": "as §1"}, "[12]": {"molecular_target": "Neu5Ac(a2-3)Gal(b1-3)GlcNAc(b1-3)Gal(b1-3)GlcNAc", "how_it_was_run": "as §1"}, "[13]": {"molecular_target": "Neu5Ac(a2-3)Gal(b1-3)GlcNAc(b1-3)Gal(b1-4)GlcNAc", "how_it_was_run": "as §1"}, "[14]": {"molecular_target": "Neu5Ac(a2-3)Gal(b1-3)GlcNAc(b1-3)GalNAc", "how_it_was_run": "as §1"}, "[15]": {"molecular_target": "Neu5Ac(a2-3)Gal(b1-3)GlcNAc(b1-6)GalNAc", "how_it_was_run": "as §1"}, "[16]": {"molecular_target": "Neu5Ac(a2-3)Gal(b1-3)GlcNAc6S", "how_it_was_run": "as §1"}, "[17]": {"molecular_target": "Neu5Ac(a2-3)Gal(b1-3)[Fuc(a1-4)]GlcNAc", "how_it_was_run": "as §1"}, "[18]": {"molecular_target": "Neu5Ac(a2-3)Gal(b1-3)[Fuc(a1-4)]GlcNAc(b1-3)Gal(b1-3)[Fuc(a1-4)]GlcNAc", "how_it_was_run": "as §1"}, "[19]": {"molecular_target": "Neu5Ac(a2-3)Gal(b1-3)[Fuc(a1-4)]GlcNAc(b1-3)Gal(b1-4)[Fuc(a1-3)]GlcNAc", "how_it_was_run": "as §1"}, "[20]": {"molecular_target": "Neu5Ac(a2-3)Gal(b1-3)[GlcNAc(b1-6)]GalNAc", "how_it_was_run": "as §1"}, "[21]": {"molecular_target": "Neu5Ac(a2-3)Gal(b1-3)[Neu5Ac(a2-3)Gal(b1-4)]GlcNAc", "how_it_was_run": "as §1"}, "[22]": {"molecular_target": "Neu5Ac(a2-3)Gal(b1-3)[Neu5Ac(a2-6)]GalNAc", "how_it_was_run": "as §1"}, "[23]": {"molecular_target": "Neu5Ac(a2-3)Gal(b1-3)[Neu5Ac(a2-6)]GlcNAc(b1-3)[Fuc(a1-3)[Gal(b1-4)]GlcNAc(b1-6)]Gal(b1-4)Glc", "how_it_was_run": "as §1"}, "[24]": {"molecular_target": "Neu5Ac(a2-3)Gal(b1-3)]Neu5Ac(a2-3)Gal(b1-4)]GlcNAc", "how_it_was_run": "as §1"}, "Neu5Ac(a2-3)Gal(b1-4)Glc": {"molecular_target": "Neu5Ac(a2-3)Gal(b1-4)Glc", "how_it_was_run": "as §1"}, "[25]": {"molecular_target": "Neu5Ac(a2-3)Gal(b1-4)GlcNAc", "how_it_was_run": "as §1"}, "[26]": {"molecular_target": "Neu5Ac(a2-3)Gal(b1-4)GlcNAc(b1-2)Man", "how_it_was_run": "as §1"}, "[27]": {"molecular_target": "Neu5Ac(a2-3)Gal(b1-4)GlcNAc(b1-2)Man(a1-3)[GlcNAc(b1-2)Man(b1-4)GlcNAc(b1-2)Man(a1-6)]Man(b1-4)GlcNAc(b1-4)GlcNAc", "how_it_was_run": "as §1"}, "[28]": {"molecular_target": "Neu5Ac(a2-3)Gal(b1-4)GlcNAc(b1-2)Man(a1-3)[GlcNAc(b1-4)][Neu5Ac(a2-3)Gal(b1-4)GlcNAc(b1-2)Man(a1-6)]Man(b1-4)GlcNAc(b1-4)GlcNAc", "how_it_was_run": "as §1"}, "[29]": {"molecular_target": "Neu5Ac(a2-3)Gal(b1-4)GlcNAc(b1-2)Man(a1-3)[Neu5Ac(a2-3)Gal(b1-4)GlcNAc(b1-2)Man(a1-6)]Man(b1-4)GlcNAc(b1-4)GlcNAc", "how_it_was_run": "as §1"}, "[30]": {"molecular_target": "Neu5Ac(a2-3)Gal(b1-4)GlcNAc(b1-2)Man(a1-3)[Neu5Ac(a2-3)Gal(b1-4)GlcNAc(b1-2)Man(a1-6)]Man(b1-4)GlcNAc(b1-4)[Fuc(a1-6)]GlcNAc", "how_it_was_run": "as §1"}, "[31]": {"molecular_target": "Neu5Ac(a2-3)Gal(b1-4)GlcNAc(b1-2)Man(a1-3)[Neu5Ac(a2-6)Gal(b1-4)GlcNAc(b1-2)Man(a1-6)]Man(b1-4)GlcNAc(b1-4)GlcNAc", "how_it_was_run": "as §1"}}, "note": "The list shows a part of the results."}
{"binder": "B1", "values": [{"measurement": "glycan array binding signal (z-score)", "setting": "Man(a1-6)Man", "result": -0.437}, {"measurement": "glycan array binding signal (z-score)", "setting": "Man(b1-4)GlcNAc", "result": -0.306}, {"measurement": "glycan array binding signal (z-score)", "setting": "MurNAc(b1-4)GlcNAc", "result": -1.12}, {"measurement": "glycan array binding signal (z-score)", "setting": "Neu5Ac(a2-3)Gal", "result": -0.251}, {"measurement": "glycan array binding signal (z-score)", "setting": "[1]", "result": 0.519}, {"measurement": "glycan array binding signal (z-score)", "setting": "[2]", "result": -0.211}, {"measurement": "glycan array binding signal (z-score)", "setting": "[3]", "result": -0.327}, {"measurement": "glycan array binding signal (z-score)", "setting": "[4]", "result": 0.362}, {"measurement": "glycan array binding signal (z-score)", "setting": "[5]", "result": 1.62}, {"measurement": "glycan array binding signal (z-score)", "setting": "[6]", "result": -0.511}, {"measurement": "glycan array binding signal (z-score)", "setting": "[7]", "result": -0.296}, {"measurement": "glycan array binding signal (z-score)", "setting": "[8]", "result": 0.169}, {"measurement": "glycan array binding signal (z-score)", "setting": "[9]", "result": 0.249}, {"measurement": "glycan array binding signal (z-score)", "setting": "[10]", "result": 0.882}, {"measurement": "glycan array binding signal (z-score)", "setting": "[11]", "result": 0.399}, {"measurement": "glycan array binding signal (z-score)", "setting": "[12]", "result": -0.65}, {"measurement": "glycan array binding signal (z-score)", "setting": "[13]", "result": -0.351}, {"measurement": "glycan array binding signal (z-score)", "setting": "[14]", "result": -0.549}, {"measurement": "glycan array binding signal (z-score)", "setting": "[15]", "result": -0.292}, {"measurement": "glycan array binding signal (z-score)", "setting": "[16]", "result": -0.518}, {"measurement": "glycan array binding signal (z-score)", "setting": "[17]", "result": -0.641}, {"measurement": "glycan array binding signal (z-score)", "setting": "[18]", "result": 0.24}, {"measurement": "glycan array binding signal (z-score)", "setting": "[19]", "result": 0.041}, {"measurement": "glycan array binding signal (z-score)", "setting": "[20]", "result": 0.001}, {"measurement": "glycan array binding signal (z-score)", "setting": "[21]", "result": -0.8}, {"measurement": "glycan array binding signal (z-score)", "setting": "[22]", "result": 0.914}, {"measurement": "glycan array binding signal (z-score)", "setting": "[23]", "result": -0.301}, {"measurement": "glycan array binding signal (z-score)", "setting": "[24]", "result": -0.5}, {"measurement": "glycan array binding signal (z-score)", "setting": "Neu5Ac(a2-3)Gal(b1-4)Glc", "result": 0.241}, {"measurement": "glycan array binding signal (z-score)", "setting": "[25]", "result": -0.097}, {"measurement": "glycan array binding signal (z-score)", "setting": "[26]", "result": -0.214}, {"measurement": "glycan array binding signal (z-score)", "setting": "[27]", "result": 0.092}, {"measurement": "glycan array binding signal (z-score)", "setting": "[28]", "result": 1.01}, {"measurement": "glycan array binding signal (z-score)", "setting": "[29]", "result": -0.213}, {"measurement": "glycan array binding signal (z-score)", "setting": "[30]", "result": 0.086}, {"measurement": "glycan array binding signal (z-score)", "setting": "[31]", "result": -0.151}]}
